Some entries share one result that the patent states for a list of compounds. For at least one compound, name, drawing or mass did not settle the structure.
Molecular target: T1, GRU1.2D-3 (Bombyx mori, UniProt P49881)
T1 construct: BEcR hinge domain and HBD (corresponding to amino acids 272 to 606); expressed in transfected cells
T1 sequence (P49881 272-606): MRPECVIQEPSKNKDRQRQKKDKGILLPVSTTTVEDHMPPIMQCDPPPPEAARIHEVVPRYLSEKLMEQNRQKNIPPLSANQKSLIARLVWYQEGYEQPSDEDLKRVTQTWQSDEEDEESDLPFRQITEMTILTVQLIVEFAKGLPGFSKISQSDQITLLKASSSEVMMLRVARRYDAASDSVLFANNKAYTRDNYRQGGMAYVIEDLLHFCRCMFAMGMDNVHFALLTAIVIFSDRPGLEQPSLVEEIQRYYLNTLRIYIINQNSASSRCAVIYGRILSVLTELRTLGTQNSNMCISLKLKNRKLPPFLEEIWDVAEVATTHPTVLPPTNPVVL
Assay: transient transfection luciferase expression assay (GalO-luc reporter) with VHB and GRU1.2D-3
Type: cell-based
Conditions: multiple transient transfection experiments, 1 micromolar ligand, 48 hrs
Experimental: All construction and cloning was performed by standard methods and as described by Suhr et al., in Proc Natl Acad Sci USA 95(14):7999-8004 (1998) for similar chimeric proteins. For the VHB protein combining the transactivation domain of HSV VP16 protein with the hinge and hormone binding/heterodimerization domain (HBD) of Bombyx mori EcR (BEcR), the 77 amino acid (231 base pair) VP16 domain was amplified by PCR with an in-frame Mlul site at the 3′ end that was ligated with an identical site introduced into the 5′ end of the BEcR hinge domain and HBD (corresponding to amino acids 272 to 606). The final construct, termed VHB, functionally couples the VP16 domain with the BEcR high-affinity hormone responsive domains (see FIG. 3). This DNA was introduced into a number of expression constructs for expression in transduced cells.
The DNA-binding dimer partner protein fused the 95 amino acid Gal4 DNA binding domain via a BspE I site at the 3′ end to a region of either the RXR or Usp protein with high affinity ligand dependent interaction with BEcR. These variants used amino acids 200-462 of the human RXR alpha protein or amino acids 169-507 of the Drosophila Usp protein (see FIG. 3). These proteins are termed GR (for the RXR variant) or GU (for the Usp variant). […]

CC(C)(O)CC[C@@H](O)[C@](C)(O)[C@H]1CC[C@@]2(O)C3=CC(=O)[C@@H]4C[C@@H](O)[C@@H](O)C[C@]4(C)[C@H]3CC[C@]12C [20-OH ecdysone, 20-Hydroxy-ecdysone]
fold induction (relative increase, induced level divided by unstimulated level): 50-100 fold

CCc1ccc(C(=O)NN(C(=O)c2cc(C)cc(C)c2)C(C)(C)C)cc1 [tebufenozide]
fold induction (relative increase, induced level divided by unstimulated level): 50-100 fold

Reference: patent US20040102367A1, “Gene expression system based on chimeric receptors” (priority 2002, published 2004)
